# In EP0845034B1, “PEPTIDE HAVING PRONOCICEPTIVE PROPERTIES” (Euroscreen S.A., priority 1995, dated 1997):
# Not every detail of the peptide structures is certain; ends, links or a residue may be inferred. Ends that are not written are not given here.
# Columns and labels:
# [1] = system: CHO(ORL1^-) cell line; assay type: cell-based
# [2] = system: mice; assay: hole board test; assay type: in vivo; conditions: 100 ng/mouse i.c.v.
# [3] = system: mice; assay: hot plate test of Eddy and Leimbach; assay type: in vivo; conditions: for effect on pain reactivity in mice: administered in vivo, i.c.v. 10 or 100 ng
# [4] = system: mice; assay: locomotor activity (Digiscan Animal Activity Monitor), horizontal and vertical; assay type: in vivo; conditions: for Number of verticalisations during periods (min) 0-10 min: dose 0: 96 ± 24.3; for Number of verticalisations during periods (min) 10-20 min: dose 0: 131 ± 29.4; for Number of verticalisations during periods (min) 20-30 min: dose 0: 143 ± 33
# [5] = system: ORL1 receptor; assay type: cell-based
# [6] = single i.c.v. injection, 100 ng (55 pmol), vs control
molecule,measurement,setting,value
CC(C)C[C@H](NC(=O)[C@H](CCCCN)NC(=O)[C@H](CCCNC(=N)N)NC(=O)[C@H](C)NC(=O)[C@H](CO)NC(=O)[C@H](CCCCN)NC(=O)[C@H](CCCNC(=N)N)NC(=O)[C@H](C)NC(=O)CNC(=O)[C@@H](NC(=O)[C@H](Cc1ccccc1)NC(=O)CNC(=O)CNC(=O)[C@@H](N)Cc1ccccc1)[C@@H](C)O)C(=O)N[C@@H](C)C(=O)N[C@@H](CC(N)=O)C(=O)N[C@@H](CCC(N)=O)C(=O)O [nociceptin],action on cyclase,[1],no action
same,number of explored holes,"[2]; 20 minutes period of observation, saline 155 ± 15",226 ± 18
same,Number of explored holes during the periods (min) 0-5,[2]; saline 28.5±5.7,50.4±6.8
same,Number of explored holes during the periods (min) 5-10,[2]; saline 39.0±4.6,64.5±7.3
same,Number of explored holes during the periods (min) 15-20,[2]; saline 40.1+6.5,58.6±6.6
same,Number of explored holes during the periods (min) 10-15,[2]; saline 46.8±4.3,62.4±5.6
same,effect on pain reactivity in mice,[3]; listed as first synthetic heptadecapeptide,induces hyperalgesia
same,effect on pain reactivity in mice,[3]; listed as synthetic heptadecapeptide,hyperreactive
same,reduction of latency to escape jumping,[3]; [6],-26%
same,reduction of latency to rearing,[3]; [6],-36%
same,latency to rearing,"[3]; single i.c.v. injection, 100 ng (55 pmol), control 22 ± 2",14 ± 2 s
same,latency to escape jumping,"[3]; single i.c.v. injection, 100 ng (55 pmol), control 65 ± 3",48 ± 2 s
same,Number of verticalisations during periods (min) 0-10 min,[4]; 10 ng/mouse i.c.v.,195 ± 34
same,Number of verticalisations during periods (min) 10-20 min,[4]; 10 ng/mouse i.c.v.,223 ± 39
same,Number of verticalisations during periods (min) 20-30 min,[4]; 10 ng/mouse i.c.v.,222 ± 39
same,Number of verticalisations during periods (min) 0-10 min,[4]; 100 ng/mouse i.c.v.,266 ± 41
same,Number of verticalisations during periods (min) 10-20 min,[4]; 100 ng/mouse i.c.v.,253 ± 33.5
same,Number of verticalisations during periods (min) 20-30 min,[4]; 100 ng/mouse i.c.v.,231 ± 34.5
same,Number of verticalisations during periods (min) 0-10 min,[4]; 1000 ng/mouse i.c.v.,239 ± 56.2
same,Number of verticalisations during periods (min) 10-20 min,[4]; 1000 ng/mouse i.c.v.,301 ± 36.6
same,Number of verticalisations during periods (min) 20-30 min,[4]; 1000 ng/mouse i.c.v.,295 ± 50.5
same,delay before stimulation of horizontal locomotor activity,"[4]; highest dose tested (10 µg), following i.c.v. injection",at least 25 minutes
same,horizontal locomotor activity,"[4]; i.c.v., 10 ng/mouse",statistically significant increase
same,horizontal locomotor activity,"[4]; i.c.v., 100 ng",even more pronounced
same,delay before stimulation of locomotion,"[4]; i.c.v., 1 and 10 µg/mouse, after introduction into the monitor",at least 20 minutes
same,duration of stimulant action,"[4]; i.c.v., 10 and 100 ng",no more than 20 minutes
YGGFTGARKSARKLANQ [^1Tyr analogue],maximal inhibition,[5],> 90%
same,action on cyclase,[1],totally inactive
